Source: patent US5434066
Tags and fusion partners may be left off the protein sequences shown. For some assays here: For at least one entry, the source does not settle the construct or the ends of the probe.

Tests used:
[1] = target: T1, Cre recombinase (Bacteriophage P1) (UniProt P06956); test: enzyme reaction in vitro; details: in vitro Cre excision of the kanR gene between directly repeated lox sites, giving pZL; protein in an extract
T1 sequence (looked up, limits assumed): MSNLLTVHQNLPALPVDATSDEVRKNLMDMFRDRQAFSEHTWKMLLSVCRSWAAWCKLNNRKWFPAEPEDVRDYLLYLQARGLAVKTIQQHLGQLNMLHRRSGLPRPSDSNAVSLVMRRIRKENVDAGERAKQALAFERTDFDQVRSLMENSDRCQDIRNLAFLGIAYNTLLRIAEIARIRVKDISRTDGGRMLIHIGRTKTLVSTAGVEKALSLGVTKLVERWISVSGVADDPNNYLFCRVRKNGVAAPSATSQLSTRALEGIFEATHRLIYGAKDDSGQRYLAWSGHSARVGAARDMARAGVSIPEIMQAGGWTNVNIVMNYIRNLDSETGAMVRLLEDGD

[2] = target: T1, Cre recombinase (Bacteriophage P1); test: activity in cells; details: pSPORTLoxP yield estimated 5-10 fold lower than pSPORT in Cre-expressing cells; presumed Cre binding to loxP blocks replication; protein in cells; protein details: expressed from pZIP plasmid in E. coli DH10BZIP; only the site is given

## ATAACTTCGTATAATGTATGCTATACGAAGTTAT (double strand) [loxP site]
[1]
  activity on this sequence: active
[2]
  activity on this sequence: active
